# ± gives the standard deviation of the averaged measurements. The list shows a part of the results.
# Columns and labels:
# Experiment in all cases: NP40-soluble protein abundance relative to vehicle (solubility fold change) (ratio); higher = more soluble protein in presence of GTP
# [1] = target: T1, C9J6V2 and related entries (UniProt Q8TA86)
# T1 sequence (whole entry): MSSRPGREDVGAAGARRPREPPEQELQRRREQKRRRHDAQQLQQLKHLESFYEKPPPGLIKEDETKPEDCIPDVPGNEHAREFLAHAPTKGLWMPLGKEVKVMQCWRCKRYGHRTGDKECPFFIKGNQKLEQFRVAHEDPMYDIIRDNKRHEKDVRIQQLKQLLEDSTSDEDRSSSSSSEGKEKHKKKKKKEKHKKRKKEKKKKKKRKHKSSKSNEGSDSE
# Outline: (§1)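 Eight concentrations, 0.1 to 10 mM, were tested on Jurkat crude lysate for 10 min at room temperature and then 3 min at 37 °C, in three independent experiments. The lysate was solubilised with 0.8% NP40 and benzonase, ultracentrifuged, and the supernatant TMT-labelled for LC-MS/MS. Each value is the fold change against the detergent-processed vehicle in its own replicate, from vsn-normalised intensities.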
# [2] = target: T2, C9JDR0 and related entries (UniProt Q15738)
# T2 sequence (whole entry): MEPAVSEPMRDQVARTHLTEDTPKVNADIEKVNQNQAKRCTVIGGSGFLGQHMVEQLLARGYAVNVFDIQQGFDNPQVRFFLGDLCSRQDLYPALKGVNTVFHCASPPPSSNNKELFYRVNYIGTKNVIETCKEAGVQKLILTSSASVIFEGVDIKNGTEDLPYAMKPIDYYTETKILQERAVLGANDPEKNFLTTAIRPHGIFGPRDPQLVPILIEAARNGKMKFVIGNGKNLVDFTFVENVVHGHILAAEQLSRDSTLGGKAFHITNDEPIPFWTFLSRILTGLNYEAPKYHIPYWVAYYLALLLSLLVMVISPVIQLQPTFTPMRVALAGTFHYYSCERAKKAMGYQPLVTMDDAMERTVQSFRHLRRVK
# Outline: as §1
# [3] = target: T3, C9JYA1 and related entries (UniProt O15504)
# T3 sequence (whole entry): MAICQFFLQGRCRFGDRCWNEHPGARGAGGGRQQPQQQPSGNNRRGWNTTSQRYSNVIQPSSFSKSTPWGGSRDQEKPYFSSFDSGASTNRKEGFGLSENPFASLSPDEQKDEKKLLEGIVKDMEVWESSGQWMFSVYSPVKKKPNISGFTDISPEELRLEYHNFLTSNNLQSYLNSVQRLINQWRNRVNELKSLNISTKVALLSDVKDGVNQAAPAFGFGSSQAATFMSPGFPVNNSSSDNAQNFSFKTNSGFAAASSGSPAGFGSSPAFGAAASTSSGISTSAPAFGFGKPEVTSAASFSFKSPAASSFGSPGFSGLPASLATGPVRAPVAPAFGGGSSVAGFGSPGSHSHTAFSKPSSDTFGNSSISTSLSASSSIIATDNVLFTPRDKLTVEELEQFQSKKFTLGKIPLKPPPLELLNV
# Outline: as §1
# [4] = target: T4, D6RDX7 and related entries (UniProt Q6PCB8)
# T4 sequence (whole entry): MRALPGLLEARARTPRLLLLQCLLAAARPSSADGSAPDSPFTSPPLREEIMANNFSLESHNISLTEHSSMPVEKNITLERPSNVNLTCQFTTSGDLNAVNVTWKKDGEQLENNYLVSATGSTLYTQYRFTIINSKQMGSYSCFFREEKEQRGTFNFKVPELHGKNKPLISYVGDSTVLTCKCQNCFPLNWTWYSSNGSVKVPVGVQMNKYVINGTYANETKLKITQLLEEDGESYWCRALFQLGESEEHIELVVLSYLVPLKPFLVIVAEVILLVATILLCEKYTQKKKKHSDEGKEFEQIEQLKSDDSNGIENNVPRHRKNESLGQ
# Outline: as §1
# [5] = target: T5, E3W994 and related entries (UniProt O75122)
# T5 sequence (whole entry): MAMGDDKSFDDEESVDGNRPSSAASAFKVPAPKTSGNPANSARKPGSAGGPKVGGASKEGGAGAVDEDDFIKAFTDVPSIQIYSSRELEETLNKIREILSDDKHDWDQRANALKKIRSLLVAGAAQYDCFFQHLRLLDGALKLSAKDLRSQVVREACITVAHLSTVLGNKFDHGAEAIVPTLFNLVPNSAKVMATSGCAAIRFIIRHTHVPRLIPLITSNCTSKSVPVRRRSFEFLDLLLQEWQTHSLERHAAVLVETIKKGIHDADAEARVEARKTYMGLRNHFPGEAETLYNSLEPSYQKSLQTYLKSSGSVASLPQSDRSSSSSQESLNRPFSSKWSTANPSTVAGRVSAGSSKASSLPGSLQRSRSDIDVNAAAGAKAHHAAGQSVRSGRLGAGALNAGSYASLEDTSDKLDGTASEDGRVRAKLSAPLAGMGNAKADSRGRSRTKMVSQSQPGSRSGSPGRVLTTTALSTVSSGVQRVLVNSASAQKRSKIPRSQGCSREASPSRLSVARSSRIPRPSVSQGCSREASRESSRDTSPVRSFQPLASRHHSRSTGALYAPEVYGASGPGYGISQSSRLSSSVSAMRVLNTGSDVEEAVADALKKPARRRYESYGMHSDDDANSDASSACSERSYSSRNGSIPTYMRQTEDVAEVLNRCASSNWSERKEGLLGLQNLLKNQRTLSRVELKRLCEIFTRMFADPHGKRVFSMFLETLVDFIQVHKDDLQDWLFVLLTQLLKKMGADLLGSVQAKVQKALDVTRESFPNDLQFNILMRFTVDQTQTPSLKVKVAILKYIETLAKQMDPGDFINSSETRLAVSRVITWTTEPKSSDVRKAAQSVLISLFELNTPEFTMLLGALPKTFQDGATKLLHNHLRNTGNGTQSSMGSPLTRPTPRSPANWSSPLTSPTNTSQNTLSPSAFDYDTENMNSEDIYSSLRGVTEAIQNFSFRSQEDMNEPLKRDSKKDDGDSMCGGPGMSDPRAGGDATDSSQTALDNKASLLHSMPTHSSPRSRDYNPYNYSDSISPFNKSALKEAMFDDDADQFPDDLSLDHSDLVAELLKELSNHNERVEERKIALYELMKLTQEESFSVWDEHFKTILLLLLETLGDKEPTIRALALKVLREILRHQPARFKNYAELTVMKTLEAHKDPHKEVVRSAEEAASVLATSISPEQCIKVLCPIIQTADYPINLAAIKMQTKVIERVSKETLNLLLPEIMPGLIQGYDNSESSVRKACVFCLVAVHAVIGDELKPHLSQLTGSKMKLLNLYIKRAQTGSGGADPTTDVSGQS
# Outline: as §1
# [6] = target: T6, E7EMK3 and related entries (UniProt Q14254)
# T6 sequence (whole entry): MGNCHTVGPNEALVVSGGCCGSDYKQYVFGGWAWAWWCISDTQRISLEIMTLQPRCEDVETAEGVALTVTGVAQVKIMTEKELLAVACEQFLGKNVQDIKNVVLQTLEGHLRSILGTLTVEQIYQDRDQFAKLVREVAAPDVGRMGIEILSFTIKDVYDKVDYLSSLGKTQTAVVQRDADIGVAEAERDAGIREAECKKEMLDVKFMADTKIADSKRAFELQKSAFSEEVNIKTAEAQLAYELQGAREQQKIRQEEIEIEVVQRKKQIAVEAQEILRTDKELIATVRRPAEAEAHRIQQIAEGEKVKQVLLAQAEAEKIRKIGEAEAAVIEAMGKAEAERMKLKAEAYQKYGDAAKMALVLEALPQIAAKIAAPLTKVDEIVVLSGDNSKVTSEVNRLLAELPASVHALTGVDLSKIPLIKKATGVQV
# Outline: as §1
# [7] = target: T7, E7EMN6 and related entries (UniProt P41236)
# T7 sequence (whole entry): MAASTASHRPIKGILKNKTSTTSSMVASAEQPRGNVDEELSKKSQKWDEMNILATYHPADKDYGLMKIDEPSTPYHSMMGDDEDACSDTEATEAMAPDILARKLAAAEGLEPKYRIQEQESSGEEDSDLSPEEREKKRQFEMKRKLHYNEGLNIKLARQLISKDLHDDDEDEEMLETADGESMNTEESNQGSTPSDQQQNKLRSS
# Outline: as §1
smiles,measurement,setting,value
Nc1nc2c(ncn2[C@@H]2O[C@H](COP(=O)(O)OP(=O)(O)OP(=O)(O)O)[C@@H](O)[C@H]2O)c(=O)[nH]1 [guanosine triphosphate],NP40-soluble protein abundance,[1]; concentration: 0.1mM,0.998 ± 0.12
same,NP40-soluble protein abundance,[1]; concentration: 0.5mM,0.991 ± 0.067
same,NP40-soluble protein abundance,[1]; concentration: 1mM,1.07 ± 0.015
same,NP40-soluble protein abundance,[1]; concentration: 2mM,1.02 ± 0.057
same,NP40-soluble protein abundance,[1]; concentration: 4mM,0.9939 ± 0.0064
same,NP40-soluble protein abundance,[1]; concentration: 6mM,1.04 ± 0.12
same,NP40-soluble protein abundance,[1]; concentration: 8mM,1.04 ± 0.052
same,NP40-soluble protein abundance,[1]; concentration: 10mM,1.2 ± 0.16
same,NP40-soluble protein abundance,[2]; concentration: 0.1mM,0.987 ± 0.025
same,NP40-soluble protein abundance,[2]; concentration: 0.5mM,0.976 ± 0.035
same,NP40-soluble protein abundance,[2]; concentration: 1mM,0.882 ± 0.028
same,NP40-soluble protein abundance,[2]; concentration: 2mM,0.865 ± 0.051
same,NP40-soluble protein abundance,[2]; concentration: 4mM,0.845 ± 0.051
same,NP40-soluble protein abundance,[2]; concentration: 6mM,0.85 ± 0.049
same,NP40-soluble protein abundance,[2]; concentration: 8mM,0.806 ± 0.048
same,NP40-soluble protein abundance,[2]; concentration: 10mM,0.807 ± 0.087
same,NP40-soluble protein abundance,[3]; concentration: 0.1mM,0.963 ± 0.11
same,NP40-soluble protein abundance,[3]; concentration: 0.5mM,1.04 ± 0.026
same,NP40-soluble protein abundance,[3]; concentration: 1mM,0.993 ± 0.1
same,NP40-soluble protein abundance,[3]; concentration: 2mM,1.077 ± 0.0087
same,NP40-soluble protein abundance,[3]; concentration: 4mM,1.04 ± 0.03
same,NP40-soluble protein abundance,[3]; concentration: 6mM,1.17 ± 0.14
same,NP40-soluble protein abundance,[3]; concentration: 8mM,1.21 ± 0.15
same,NP40-soluble protein abundance,[3]; concentration: 10mM,1.41 ± 0.12
same,NP40-soluble protein abundance,[4]; concentration: 0.1mM,0.903 ± 0.059
same,NP40-soluble protein abundance,[4]; concentration: 0.5mM,0.899 ± 0.061
same,NP40-soluble protein abundance,[4]; concentration: 1mM,0.975 ± 0.11
same,NP40-soluble protein abundance,[4]; concentration: 2mM,0.913 ± 0.072
same,NP40-soluble protein abundance,[4]; concentration: 4mM,0.901 ± 0.12
same,NP40-soluble protein abundance,[4]; concentration: 6mM,0.927 ± 0.14
same,NP40-soluble protein abundance,[4]; concentration: 8mM,0.91 ± 0.098
same,NP40-soluble protein abundance,[4]; concentration: 10mM,0.954 ± 0.065
same,NP40-soluble protein abundance,[5]; concentration: 0.1mM,1 ± 0.041
same,NP40-soluble protein abundance,[5]; concentration: 0.5mM,1.04 ± 0.053
same,NP40-soluble protein abundance,[5]; concentration: 1mM,1.1 ± 0.073
same,NP40-soluble protein abundance,[5]; concentration: 2mM,1.13 ± 0.12
same,NP40-soluble protein abundance,[5]; concentration: 4mM,1.16 ± 0.13
same,NP40-soluble protein abundance,[5]; concentration: 6mM,1.17 ± 0.14
same,NP40-soluble protein abundance,[5]; concentration: 8mM,1.19 ± 0.18
same,NP40-soluble protein abundance,[5]; concentration: 10mM,1.21 ± 0.21
same,NP40-soluble protein abundance,[6]; concentration: 0.1mM,1.04 ± 0.066
same,NP40-soluble protein abundance,[6]; concentration: 0.5mM,1.14 ± 0.1
same,NP40-soluble protein abundance,[6]; concentration: 1mM,1.09 ± 0.075
same,NP40-soluble protein abundance,[6]; concentration: 2mM,1.14 ± 0.11
same,NP40-soluble protein abundance,[6]; concentration: 4mM,1.25 ± 0.099
same,NP40-soluble protein abundance,[6]; concentration: 6mM,1.22 ± 0.18
same,NP40-soluble protein abundance,[6]; concentration: 8mM,1.25 ± 0.19
same,NP40-soluble protein abundance,[6]; concentration: 10mM,1.2 ± 0.16
same,NP40-soluble protein abundance,[7]; concentration: 0.1mM,1.02 ± 0.046
same,NP40-soluble protein abundance,[7]; concentration: 0.5mM,1.02 ± 0.02
same,NP40-soluble protein abundance,[7]; concentration: 1mM,1.09 ± 0.096
same,NP40-soluble protein abundance,[7]; concentration: 2mM,1.07 ± 0.024
same,NP40-soluble protein abundance,[7]; concentration: 4mM,0.9697 ± 0.0043
same,NP40-soluble protein abundance,[7]; concentration: 6mM,1.02 ± 0.043
same,NP40-soluble protein abundance,[7]; concentration: 8mM,1.042 ± 0.0026
same,NP40-soluble protein abundance,[7]; concentration: 10mM,1.1 ± 0.1

# For convenience, part of the list above.
smiles,measurement,setting,value
Nc1nc2c(ncn2[C@@H]2O[C@H](COP(=O)(O)OP(=O)(O)OP(=O)(O)O)[C@@H](O)[C@H]2O)c(=O)[nH]1 [guanosine triphosphate],NP40-soluble protein abundance,[2]; concentration: 6mM,0.85 ± 0.049
same,NP40-soluble protein abundance,[2]; concentration: 8mM,0.806 ± 0.048
